The text below walks through data of PubChem BioAssay AID1347426 (Functional Genomics Laboratory (NCATS/FGL), 2020).

In all, about 31,000 sequences went through this assay and about 1,400 (4.5%) were called active.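 How the source made its calls: active means median seed-adjusted z-score above 1 or below -1; inactive means the rest.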 The list shows a part of the results.

This assay in a line: Novel Modifiers of Survival Motor Neuron (SMN) Protein: Gene Identification via Genome-wide siRNA Screen.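 Further: luminescence tracks full-length SMN protein made from the SMN2 reporter.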 Particulars: HEK293T SMN2-luciferase reporter, siRNA knockdown, 72 h; actives lie on both sides. Summed up:
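Genome-wide siRNA screen (10418 genes, 3 siRNAs each, 1 pmol per well) by reverse transfection in HEK293T cells stably carrying an SMN2-luciferase reporter; luminescence after 72 hours, normalized to negative-control siRNA, log10-transformed, MAD-scored.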
Background: In a reporter assay the amount or activity of a reporter protein is the signal.
For GAGCUUCGAUCAAAAUUGATT against HNRPK, the median seed-adjusted z-score is inactive: 0.296.

Turning to GAGCUGAAGUUAACCCUGUTT against RLN2, the median seed-adjusted z-score is inactive: 0.877.

For the sequence CCCUAAAUGUAUCUCGGAATT against GRIN3A, the median seed-adjusted z-score was inactive: 0.241.

For GCCUCGCUGUAAUUCUGCCTT against NDUFA3, the median seed-adjusted z-score was inactive: -0.062.

As to GACAAGCAAUGGGAUGAAATT against AAK1, the median seed-adjusted z-score is inactive: 0.27.

Regarding GGGUUACAUUUUUGAAGCATT against SOX18, the median seed-adjusted z-score is inactive: 0.0663.

In the case of GAAGGACUGUUGGACCUCATT against SYTL1, the median seed-adjusted z-score is inactive: 0.0856.

Consider AGGAUAUUGUGAUUCAGCATT against POLR2G, for which the median seed-adjusted z-score was active: -4.19.

Regarding GUUGAGACCUUAGAGCACATT against CSF1R, the median seed-adjusted z-score is inactive: 0.38.

On to CGCCCAAGUUUAUUUCAGATT against ZNF564, for which the median seed-adjusted z-score is inactive: 0.382.

In the case of CGGCGGUGAAGAAACGGAATT against SYTL1, the median seed-adjusted z-score was inactive: 0.0856.

On to GGUUGGUUAGUGUCUAUUATT against POLR1B, for which the median seed-adjusted z-score was inactive: -0.434.

For CAUGAACCCAGUGAAGAUATT against IRF6, the median seed-adjusted z-score was active: -1.79.

For GAAGAUUGAGGAGAUCUUUTT against CKM, the median seed-adjusted z-score is inactive: -0.189.

For the sequence GGAUCUCUGGUUAAACACATT against RXRG, the median seed-adjusted z-score was inactive: 0.16.

As for ACAUCGCCCUUAUUGCUAUTT against FOXS1, the median seed-adjusted z-score is inactive: 0.

Turning to GCGAAUCCAGGAUCAAGAATT against TRIP4, the median seed-adjusted z-score was inactive: -0.0385.

For GCAAAAAGGUGCGGAAGAATT against SYT5, the median seed-adjusted z-score is inactive: 0.704.

For the sequence GCUACUAUCCUGACAGUUATT against SMARCC2, the median seed-adjusted z-score was inactive: 0.0684.

Take GGCUCUCGUUUUCCACGAATT against KCNK2: the median seed-adjusted z-score is inactive: 0.257.

For the sequence GGGAUGUACUGUCCAACGATT against PPM1M, the median seed-adjusted z-score was inactive: 0.

For GGCCUUCACAUGUAGCUCATT against ZNF35, the median seed-adjusted z-score is inactive: -0.332.

GCGAUGAGGUGGACUUGUATT against ST3GAL1: the median seed-adjusted z-score is inactive: 0.255.

Regarding CCCUCUCACUUGAAGAUCATT against HYAL1, the median seed-adjusted z-score was inactive: -0.163.

GACCAUGGAUAAUAAGAAATT against CLCN6: the median seed-adjusted z-score is inactive: -0.136.

As to CGUAUAAGGAGGAAGCAAATT against CTDSP2, the median seed-adjusted z-score was inactive: 0.498.

For the sequence CUCUUCUGGUCAACUGCAATT against NRIP2, the median seed-adjusted z-score was inactive: 0.415.

Turning to CCAUUCUUCUAGCAACUGATT against DDX47, the median seed-adjusted z-score was inactive: -0.398.

ACAUCUCAGGGACCCAUUUTT against FTSJ2: the median seed-adjusted z-score was inactive: -0.277.

In the case of GGUCUUGAAGUGUACCCUATT against ITGAV, the median seed-adjusted z-score is active: 1.17.

For GCCCUUACAUACAACUGGATT against ZDHHC6, the median seed-adjusted z-score is inactive: 0.199.

As for CCGGGUCUGUGAUAUAUGATT against NAGA, the median seed-adjusted z-score was inactive: -0.247.

In the case of GGACGAGCAGCUACAGAAATT against CLTA, the median seed-adjusted z-score is inactive: 0.243.

As for CGACAGCUAUAUCCGCUUUTT against TTLL3, the median seed-adjusted z-score was inactive: -0.194.

Take GGCUUAUCCAUGCUAUAUATT against GCNT4: the median seed-adjusted z-score was inactive: -0.0629.

As to GCAGCACCGUGAAGACGAATT against ELA2B, the median seed-adjusted z-score is inactive: -0.154.

On to GGAUGUAAGGCAUAUUGGATT against ZNF674, for which the median seed-adjusted z-score was inactive: 0.234.

Take AUACAGAUCUAAUAGAGUUTT against NAT1: the median seed-adjusted z-score is inactive: -0.0665.

CCUCAUAAGUGUAAGAUAUTT against ZNF799: the median seed-adjusted z-score was active: -1.02.

Turning to GCGGGUGACUGAACUUGAATT against HOMER1, the median seed-adjusted z-score is inactive: 0.

As to GCGUAAUGUUUGUGACAAATT against ZNF782, the median seed-adjusted z-score was inactive: 0.117.

As for CACCCUAAUGGAUACAGCUTT against NTSR2, the median seed-adjusted z-score is inactive: -0.125.

With GCAAGGUUCCUAGCGUGUATT against VCAM1, the median seed-adjusted z-score is inactive: 0.19.

Regarding GCUUUUAACAAUUCCUCAATT against ZNF99, the median seed-adjusted z-score is inactive: 0.0778.

For the sequence UACCAGAUCUCAAAAAGAATT against CCR5, the median seed-adjusted z-score was inactive: -0.0281.

Regarding GGAGAGUUCAAAGACCUAATT against PRDX3, the median seed-adjusted z-score was inactive: -0.0659.

In the case of GGCUGAGUUUUGACACCAATT against CIRBP, the median seed-adjusted z-score was inactive: -0.701.

For the sequence GGAGGGCCUGUAACGUGUUTT against AKR1B10, the median seed-adjusted z-score was inactive: 0.

For CACAGUGUUUGAGAACUAUTT against RHOA, the median seed-adjusted z-score was inactive: -0.219.

On to CCACAUUGGUUACCACUAATT against ITGAV, for which the median seed-adjusted z-score is active: 1.17.

On to ACGUGGCCGUUAUCCACAATT against NFKBIB, for which the median seed-adjusted z-score was inactive: 0.00673.

On to GUAUCGGGAUUGUUAAUGATT against RNF111, for which the median seed-adjusted z-score was inactive: -0.0687.

Regarding GGAGUGUCAUGUAUAGCAUTT against CYP26B1, the median seed-adjusted z-score is inactive: -0.213.

For GCCUUAUGAAGAGUACCUATT against LAMA1, the median seed-adjusted z-score is inactive: 0.494.

Regarding GCACUACUCCGAGAAGUUATT against NEK6, the median seed-adjusted z-score is inactive: -0.674.

Take ACAUCUAUUUGUGACCUUATT against NHLH2: the median seed-adjusted z-score is inactive: 0.

As for GUAUGGAGUUACCACAAUATT against PTP4A1, the median seed-adjusted z-score is inactive: 0.103.

Turning to CUCUGGAAAUGUAACCCAUTT against SLC1A4, the median seed-adjusted z-score was inactive: 0.209.

Regarding CCUUAGACCGGGAACAACATT against PCDHGB5, the median seed-adjusted z-score is inactive: 0.464.

As to CCCGUUAAAUAAUUCCCUATT against FXYD3, the median seed-adjusted z-score is inactive: 0.254.

GAGAUUAGAUAGAUUCAAATT against PPP3CB: the median seed-adjusted z-score is inactive: 0.0225.

Consider GAACAAUCAGUGGAUUAUATT against IL2RG, for which the median seed-adjusted z-score is inactive: -0.155.

For the sequence GACUUAACCAAGAGACGUATT against THOC2, the median seed-adjusted z-score is active: -1.22.

With GGACCUCAUUUGCAAUCUUTT against RNF139, the median seed-adjusted z-score is inactive: 0.175.

As to GAUGCAGCUGUAUCCAAGATT against PML, the median seed-adjusted z-score is inactive: -0.415.

For the sequence GCUUUCACAUAAAACCCAATT against ZNF254, the median seed-adjusted z-score is inactive: 0.088.

Consider CUUUCACACUCGACACUGATT against HOXA2, for which the median seed-adjusted z-score was inactive: 0.335.

With CCGUAUUUUAUCAAGCUAATT against UNG, the median seed-adjusted z-score was inactive: 0.259.

With AGGAAGUCAGGAAUUCUAATT against SEBOX, the median seed-adjusted z-score was inactive: 0.2.

GCAAGGAGUCUAUCCAUGATT against RPS6KB2: the median seed-adjusted z-score was inactive: 0.

For the sequence GGAACACUAUAGUAAAGGUTT against SELI, the median seed-adjusted z-score is inactive: 0.

For GAAAGUCCAGAUGAGGAUATT against KLF9, the median seed-adjusted z-score was inactive: 0.767.

In the case of CCUUCUGGGUGUUAUGGAATT against DUT, the median seed-adjusted z-score was inactive: -0.0833.

As to GUGCUAAAGAUCAUUGAUATT against TRIM32, the median seed-adjusted z-score was inactive: 0.109.

In the case of CCCUCACCCUGGUGUUUGATT against PCTK3, the median seed-adjusted z-score is inactive: 0.

CGAUUGUUUUUGCCUAUUUTT against SV2B: the median seed-adjusted z-score is inactive: -0.43.

In the case of GACUGUGAGAUAAUUGAAATT against ZBTB6, the median seed-adjusted z-score is inactive: -0.225.

Consider GGACUACAGGGAUACCGAATT against AASDH, for which the median seed-adjusted z-score was inactive: 0.156.

Regarding GGACUUGACGAAAGUAACATT against TRPC6, the median seed-adjusted z-score was inactive: -0.527.

Consider CCCUGAUAAUGUUUGAUAATT against COQ6, for which the median seed-adjusted z-score is inactive: -0.0116.

In the case of GUCUCUACAAAAUCUCUAATT against GPR137B, the median seed-adjusted z-score was inactive: -0.0897.

Take AGGAAUUUCUGCGAGAAAATT against CCDC88B: the median seed-adjusted z-score was inactive: -0.153.

As to CUCGCUCACUGGUGAAUCATT against ATP1A1, the median seed-adjusted z-score is inactive: 0.271.

On to CAGUGAAUCUCCAUAAACATT against ZNF382, for which the median seed-adjusted z-score is inactive: 0.601.

As to CCCUAUGAGUACGAGCUGATT against CACNA1B, the median seed-adjusted z-score is inactive: 0.0963.

With GUGCAAAAGUAGAAGUCCATT against TBCEL, the median seed-adjusted z-score was inactive: 0.567.

Take CCUUCGAUGCUUCACUUUUTT against NSUN4: the median seed-adjusted z-score was inactive: -0.491.

As for CUACAGUUCCACAACUUCATT against MFRP, the median seed-adjusted z-score is inactive: -0.209.

GAAUCCAGAGUACAAUAUATT against PCDHGB4: the median seed-adjusted z-score is inactive: 0.176.

As to GCCUAUUACCAGUUGAAGATT against LEPREL2, the median seed-adjusted z-score is inactive: 0.0022.

As to GAAUGAACCUCUCUCCAAUTT against YWHAH, the median seed-adjusted z-score is inactive: -0.125.

In the case of CGACAUCCCUGAUAUCCGUTT against FARS2, the median seed-adjusted z-score is inactive: 0.587.

Turning to GGGAACUUCUUGGAACUUUTT against KLK12, the median seed-adjusted z-score is inactive: 0.243.

On to GGUCGAUCACAAUCAACAATT against LIFR, for which the median seed-adjusted z-score was inactive: 0.031.

GGAAGAUUUAGGAUUCAGATT against OSBPL2: the median seed-adjusted z-score is inactive: 0.

For GGAUGACAUUAGCCUAACATT against PRSS7, the median seed-adjusted z-score was inactive: 0.0614.

Regarding ACCUAGUGCUGGAACGGUATT against GPR119, the median seed-adjusted z-score is inactive: -0.382.

CAUGCUCCUUUAUCUCCGATT against F5: the median seed-adjusted z-score was inactive: -0.127.

With GCGACGGAUUGGUUUAGAATT against SNX4, the median seed-adjusted z-score is inactive: -0.144.

On to AGGUGAAACUUCGAAGACATT against TRPM3, for which the median seed-adjusted z-score is inactive: -0.633.

Take GACUAGCUAUUACAAAAGATT against ARL5B: the median seed-adjusted z-score is inactive: -0.506.

With GCAUUCACAUGUACUCCUATT against SLC26A5, the median seed-adjusted z-score was inactive: -0.252.

On to GGAAGAAUAUGUUUAGAUATT against UBE2N, for which the median seed-adjusted z-score is inactive: 0.995.

Take GAAAUUGUGCUGUGAUGUUTT against FCN2: the median seed-adjusted z-score was inactive: 0.281.

As to CAAUCGAGCUGUUGGAUAATT against MAP4K3, the median seed-adjusted z-score is inactive: -0.49.

As for GCACGGCAGCUUAAGGUAATT against RRAS2, the median seed-adjusted z-score was inactive: -0.0229.

As for GGCCUCUACUCUUCUGAAATT against PDLIM1, the median seed-adjusted z-score was inactive: -0.189.

For the sequence CACCGUCUUCGAGAACUAUTT against RHOB, the median seed-adjusted z-score is inactive: -0.776.
